Assay results published in patent US20070128672A1.
These are yes or no findings as the source states them, for the method shown.

Legend:
Assay in all cases: cross reactivity ELISA, Fab detected with 9E10 and AP goat anti-mouse
early pregnancy factor = target: early pregnancy factor
insulin = target: insulin
[1] = target: keyhole limpet haemocyanin (keyhole limpet)

B1: Fab clone 1159.8 (Fab, V domains shown)
VH: VQLLESGGGLIQPGRSLRLSCTASGFPFGDSAMTWFRQAPGKGLEWVGFIRSKAYGAATAYAASMKGRVTISRDDAKSIAYLHMSRLKIEDTAVYFCSRVKAGGPDYWGQGTLVTVSS
VL: AAELTQSPLSLPVIPGEPASISCRSSQSLLHRNGYNYLDWYLQKPGQSPQLLIYLGSTRASGVPDRFSGSGSGTDFTLNIRRVEAEDVGVYYCMQGLQTPYTFGEGTKVEIK
B1 was tested, and the binding (early pregnancy factor) was “no binding (tested: antigen coated at 2 µg/ml)”, the binding (insulin) was “no binding (tested: antigen coated at 5 µg/ml)” and the binding [1] was “no binding (tested: antigen coated at 1 µg/ml)”.
